Amino acid sequences for entries named in this document (tags omitted).
UniProt Q03164, whole entry, looked up: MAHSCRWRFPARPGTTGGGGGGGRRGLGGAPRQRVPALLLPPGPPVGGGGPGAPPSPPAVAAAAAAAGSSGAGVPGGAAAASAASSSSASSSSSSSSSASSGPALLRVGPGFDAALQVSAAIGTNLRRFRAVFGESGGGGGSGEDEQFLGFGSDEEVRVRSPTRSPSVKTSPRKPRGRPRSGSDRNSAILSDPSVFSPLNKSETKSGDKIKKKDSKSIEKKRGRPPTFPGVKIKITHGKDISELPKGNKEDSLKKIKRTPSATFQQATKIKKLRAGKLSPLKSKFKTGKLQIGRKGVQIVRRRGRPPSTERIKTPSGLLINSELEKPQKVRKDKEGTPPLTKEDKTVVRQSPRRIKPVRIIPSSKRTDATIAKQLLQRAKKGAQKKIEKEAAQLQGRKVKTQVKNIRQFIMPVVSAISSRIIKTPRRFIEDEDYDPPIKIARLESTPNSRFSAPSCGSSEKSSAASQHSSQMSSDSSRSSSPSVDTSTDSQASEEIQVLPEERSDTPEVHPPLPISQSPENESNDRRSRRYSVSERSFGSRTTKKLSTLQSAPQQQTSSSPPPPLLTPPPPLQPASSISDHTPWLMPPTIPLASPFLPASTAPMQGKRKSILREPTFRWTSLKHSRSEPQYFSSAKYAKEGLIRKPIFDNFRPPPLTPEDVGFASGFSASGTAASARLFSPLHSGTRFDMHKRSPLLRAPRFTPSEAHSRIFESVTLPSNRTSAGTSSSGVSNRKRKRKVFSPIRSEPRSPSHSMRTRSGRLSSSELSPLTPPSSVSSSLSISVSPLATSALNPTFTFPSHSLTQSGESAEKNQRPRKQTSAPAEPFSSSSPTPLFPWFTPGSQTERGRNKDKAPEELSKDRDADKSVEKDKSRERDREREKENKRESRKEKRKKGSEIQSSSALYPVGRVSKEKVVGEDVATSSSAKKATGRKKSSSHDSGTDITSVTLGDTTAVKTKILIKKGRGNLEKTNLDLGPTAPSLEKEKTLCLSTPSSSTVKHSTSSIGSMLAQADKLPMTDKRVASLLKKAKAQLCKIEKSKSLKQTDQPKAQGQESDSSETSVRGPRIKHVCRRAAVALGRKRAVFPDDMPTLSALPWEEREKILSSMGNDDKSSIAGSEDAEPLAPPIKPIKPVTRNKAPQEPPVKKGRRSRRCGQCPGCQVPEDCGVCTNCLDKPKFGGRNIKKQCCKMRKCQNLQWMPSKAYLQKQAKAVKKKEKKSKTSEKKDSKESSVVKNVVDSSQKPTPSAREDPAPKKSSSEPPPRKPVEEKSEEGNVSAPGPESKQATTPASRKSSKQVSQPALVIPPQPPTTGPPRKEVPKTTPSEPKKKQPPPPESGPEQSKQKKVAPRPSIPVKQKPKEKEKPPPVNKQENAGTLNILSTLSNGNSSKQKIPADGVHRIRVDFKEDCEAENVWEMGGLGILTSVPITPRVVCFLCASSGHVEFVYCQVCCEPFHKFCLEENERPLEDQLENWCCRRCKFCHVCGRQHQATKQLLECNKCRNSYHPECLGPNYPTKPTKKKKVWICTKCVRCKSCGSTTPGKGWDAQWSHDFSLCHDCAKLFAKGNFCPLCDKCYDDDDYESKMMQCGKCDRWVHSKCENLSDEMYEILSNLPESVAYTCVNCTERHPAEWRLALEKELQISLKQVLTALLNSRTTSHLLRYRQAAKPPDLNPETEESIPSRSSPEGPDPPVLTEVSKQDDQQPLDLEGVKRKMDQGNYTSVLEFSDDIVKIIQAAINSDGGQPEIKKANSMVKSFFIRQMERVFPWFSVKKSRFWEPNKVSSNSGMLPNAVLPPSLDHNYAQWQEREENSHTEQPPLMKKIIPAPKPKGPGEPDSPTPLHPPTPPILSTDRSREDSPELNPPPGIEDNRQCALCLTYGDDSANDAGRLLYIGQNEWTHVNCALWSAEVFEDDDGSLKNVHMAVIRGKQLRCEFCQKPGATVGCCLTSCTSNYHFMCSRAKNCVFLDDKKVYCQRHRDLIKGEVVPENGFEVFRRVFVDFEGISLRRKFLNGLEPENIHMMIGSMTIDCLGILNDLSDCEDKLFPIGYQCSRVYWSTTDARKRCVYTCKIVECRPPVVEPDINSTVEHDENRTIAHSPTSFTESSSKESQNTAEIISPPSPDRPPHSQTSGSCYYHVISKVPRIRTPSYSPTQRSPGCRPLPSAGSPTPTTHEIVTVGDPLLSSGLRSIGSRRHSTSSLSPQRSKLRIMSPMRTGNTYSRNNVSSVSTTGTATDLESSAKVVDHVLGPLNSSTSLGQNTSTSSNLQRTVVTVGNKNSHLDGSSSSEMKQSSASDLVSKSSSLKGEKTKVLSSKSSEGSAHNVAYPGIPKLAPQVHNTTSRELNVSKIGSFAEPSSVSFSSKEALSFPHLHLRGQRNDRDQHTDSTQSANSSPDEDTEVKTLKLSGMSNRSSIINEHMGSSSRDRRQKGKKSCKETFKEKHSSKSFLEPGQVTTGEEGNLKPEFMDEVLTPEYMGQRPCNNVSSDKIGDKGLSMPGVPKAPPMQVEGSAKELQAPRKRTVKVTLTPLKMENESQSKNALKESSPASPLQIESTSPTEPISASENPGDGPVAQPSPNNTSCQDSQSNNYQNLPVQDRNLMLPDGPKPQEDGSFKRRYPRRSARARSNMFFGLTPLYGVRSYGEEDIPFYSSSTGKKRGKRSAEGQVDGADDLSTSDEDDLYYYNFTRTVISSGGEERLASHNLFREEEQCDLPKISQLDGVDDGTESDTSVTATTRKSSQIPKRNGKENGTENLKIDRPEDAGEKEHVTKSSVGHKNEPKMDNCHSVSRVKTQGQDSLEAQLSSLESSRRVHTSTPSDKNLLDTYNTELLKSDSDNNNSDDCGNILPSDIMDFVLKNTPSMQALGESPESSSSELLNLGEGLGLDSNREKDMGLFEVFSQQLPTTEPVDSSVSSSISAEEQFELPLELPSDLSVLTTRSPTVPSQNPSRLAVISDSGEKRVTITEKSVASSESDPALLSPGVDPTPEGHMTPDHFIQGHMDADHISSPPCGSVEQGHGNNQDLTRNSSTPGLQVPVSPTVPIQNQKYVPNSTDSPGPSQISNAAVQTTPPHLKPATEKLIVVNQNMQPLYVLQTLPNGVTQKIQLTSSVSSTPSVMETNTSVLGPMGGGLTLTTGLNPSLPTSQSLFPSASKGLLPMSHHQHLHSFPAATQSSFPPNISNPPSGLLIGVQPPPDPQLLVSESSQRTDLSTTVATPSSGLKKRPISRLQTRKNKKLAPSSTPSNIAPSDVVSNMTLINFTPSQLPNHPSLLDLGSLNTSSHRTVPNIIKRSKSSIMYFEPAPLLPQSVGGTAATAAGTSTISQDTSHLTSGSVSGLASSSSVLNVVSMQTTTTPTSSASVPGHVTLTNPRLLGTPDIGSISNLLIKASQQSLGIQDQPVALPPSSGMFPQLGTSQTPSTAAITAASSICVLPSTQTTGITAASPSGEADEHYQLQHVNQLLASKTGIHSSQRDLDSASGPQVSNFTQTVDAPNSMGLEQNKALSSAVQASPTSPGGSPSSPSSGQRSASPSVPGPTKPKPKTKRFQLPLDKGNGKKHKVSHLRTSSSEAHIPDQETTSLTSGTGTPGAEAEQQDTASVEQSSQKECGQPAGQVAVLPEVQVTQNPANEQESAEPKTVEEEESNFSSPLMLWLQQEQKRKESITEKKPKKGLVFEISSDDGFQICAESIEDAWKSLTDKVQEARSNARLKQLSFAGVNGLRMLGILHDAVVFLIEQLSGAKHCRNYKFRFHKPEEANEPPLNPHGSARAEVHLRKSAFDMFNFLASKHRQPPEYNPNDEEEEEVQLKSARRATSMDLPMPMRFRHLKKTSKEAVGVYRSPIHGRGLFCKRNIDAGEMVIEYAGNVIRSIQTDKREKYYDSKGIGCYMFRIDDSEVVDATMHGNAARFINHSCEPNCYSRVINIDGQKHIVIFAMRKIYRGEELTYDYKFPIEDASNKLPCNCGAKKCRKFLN

Out of some 290,000 compounds screened, about 110 (0.038%) were called active. Inconclusive results, whose numbers are uncertain, are shown with a selection of clear calls. Calls follow the shape of the dose curve; as a rule, active = well fitted inhibition curve with a large enough effect in the polarisation, with a control signal flat (not every such curve was filed as active); inconclusive = small, poorly fitted or top-dose-only effect, or effect the other way, or a change in a side signal; inactive = no such curve, though single readings can be large or run the other way; the % refers to the polarisation. Potencies beside an inconclusive call are fits to weak or partial responses and may not hold up. A note “side channel” means that the fit belongs to a control or component signal, not to the main read-out.
Each compound was assayed against Histone-lysine N-methyltransferase 2A (Homo sapiens) (UniProt Q03164) (assay: qHTS Fluorescence Polarization Assay for Inhibitors of MLL CXXC domain - DNA interaction). Settings: MLL-CXXC / FITC-HOXA9 DNA fluorescence polarization; series mostly up to 115 µM.
Summary of the method: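 Fluorescence polarization: 7 uM MLL-CXXC (stock) preincubated 5 min with compounds, then 50 nM fluorescein-HOX-A9 DNA (stock) added; 30 min ambient. Buffer 50 mM Tris-HCl pH 7.5, 50 mM NaCl, 1 mM DTT, 0.05% BSA.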
For `COc1ccc(NC(=O)CN(C)S(=O)(=O)c2ccc(Br)s2)cc1`, the Potency was inconclusive: 7.08 µM [fluorescent, side channel, full curve].
For `COCC(=O)NCCNc1nc2ccc(C)cc2cc1C`, the Potency was “inactive”.
In the case of `CCCc1cc(C(=O)Nc2cc(OC)ccc2OC)cs1`, the Potency is reported as inconclusive: 11.2 µM [quencher, side channel, single point].
`Cc1ccc(N2CC(C)Cn3c2nc2c3c(=O)n(CC(=O)OCc3ccccc3)c(=O)n2C)cc1C` (centres undefined) was tested, and the Potency was inconclusive: 1.41 µM [quencher, side channel, full curve, poor fit].
In the case of `CC(=O)c1cccc(NC(=S)NCCc2ccc(F)cc2)c1`, the Potency is reported as inconclusive: 28.2 µM [fluorescent, side channel, partial curve].
In the case of `CCOC(=O)c1sc(NC(=O)CSc2nc3cccnc3n2C)nc1C`, the Potency is reported as inconclusive: 28.2 µM [fluorescent, side channel, partial curve].
For `OC1(Cc2cc(-c3ccccc3)no2)CCN(CCCc2ccccc2)CC1`, the Potency was “inactive”.
For `COc1ccc(NC(=O)CSc2ccc3c4c(cccc24)C(=O)c2ccccc2-3)cc1`, the Potency was inconclusive: 63.1 µM [fluorescent, side channel, single point].
`COc1cc2[nH]c(=O)n(Cc3ccc(C(=O)NC4CCN(Cc5ccccc5)CC4)cc3)c(=O)c2cc1OC` was tested, and the Potency was inconclusive: 35.5 µM [quencher, side channel, single point].
In the case of `COc1ccc(CC(=O)NCc2cccs2)cc1OC`, the Potency is reported as “inactive”.
With `Cc1nn(C(=O)c2cc([N+](=O)[O-])ccc2Cl)c(C)c1Br` the Potency was inconclusive: 8.91 µM [quencher, side channel, single point].
`Nc1ccc(C(=O)NCCCSc2ccccc2)cc1[N+](=O)[O-]` was tested, and the Potency was inconclusive: 63.1 µM [fluorescent, side channel, single point].
With `COc1ccc(C=C2C(=O)c3ccccc3C2=O)cc1O` the Potency was inconclusive: 50.1 µM [inhibitor, single point].
For `CCC1Oc2ccccc2N(CC(=O)NCCCN2CCCC2)C1=O` (centres undefined), the Potency was “inactive”.
`O=C(Cc1ccccc1)Nc1cc([N+](=O)[O-])ccc1N1CCOCC1` was tested, and the Potency was inconclusive: 44.7 µM [inhibitor, single point].
For `N#CCCN(C(=O)Cn1nc(C(=O)O)c2ccccc2c1=O)c1ccccc1`, the Potency was “inactive”.
`O=C(N1CCN(Cc2ccccc2)CC1)C(Cl)(Cl)Cl` was tested, and the Potency was inconclusive: 11.2 µM [fluorescent, side channel, single point].
With `C=CCSC1=N/C(=C\c2cc(OCC)c(OC(C)=O)c([N+](=O)[O-])c2)C(=O)S1` the Potency was inconclusive: 1.58 µM [quencher, side channel, full curve, poor fit].
In the case of `Cc1cccc(C(=O)NNC(=O)c2cc3cc4ccccc4nc3s2)c1`, the Potency is reported as “inactive”.
For `Cc1ccc(CCNC(=O)C2CC(c3cccc(F)c3)=NO2)cc1` (centres undefined), the Potency was “inactive”.
For `Fc1ccccc1NC(=S)N1CCOCC1`, the Potency was inconclusive: 14.1 µM [fluorescent, single point].
In the case of `CC(/C=C/c1ccc(N(C)C)cc1)=N\N=C1\NC(=O)CC(C(=O)Nc2ccccc2)S1` (centres undefined), the Potency is reported as inconclusive: 35.5 µM [fluorescent, side channel, partial curve].
With `C[n+]1ccccc1/C=C/c1ccc([N+](=O)[O-])cc1` the Potency was “inactive”.
For `CC(CC=O)CCCC(C)(C)O` (centres undefined), the Potency was “inactive”.
In the case of `Oc1ccc(-c2onc3ccc(Cl)cc23)cc1`, the Potency is reported as inconclusive: 31.6 µM [fluorescent, side channel, partial curve].
`CCN1C(=O)CCCc2ccccc21` was tested, and the Potency was “inactive”.
In the case of `COc1cc(N/N=C/c2ccccc2O)ncn1`, the Potency is reported as inconclusive: 3.98 µM [quencher, side channel, full curve].
With `CCCNC(=S)NNC(=O)c1cc(C2CC2)nc2ccccc12` the Potency was inconclusive: 14.1 µM [fluorescent, side channel, single point].
For `COc1ccc(CCNC(=O)c2ccc(CN3CCC(Cc4ccccc4)CC3)cc2)cc1OC`, the Potency was “inactive”.
For `CCc1ccccc1NC(=O)CCS(=O)(=O)c1ccc(OC)cc1`, the Potency was inconclusive: 63.1 µM [inhibitor, single point].
For `O=C(Nc1ccccc1)c1ccc2c(c1)OCCCO2`, the Potency was inconclusive: 11.2 µM [fluorescent, side channel, single point].
For `CC1(C)OC(=O)C(=Cc2ccc(-c3ccc(Cl)c(C(=O)O)c3)o2)C(=O)O1`, the Potency was active: 28.2 µM.
In the case of `CCc1ccc(-c2cc(C(=O)N/N=C/c3c[nH]c4ccccc34)[nH]n2)cc1`, the Potency is reported as “inactive”.
For `O=C(CCS(=O)(=O)c1ccc(Br)cc1)NCCc1ccc(Cl)cc1`, the Potency was inconclusive: 79.4 µM [fluorescent, side channel, single point].
With `CC[C@@H](C)[C@H](NC(=O)Cc1c(C)c2c(cc(C)c3c(C)c(C)oc32)oc1=O)C(=O)O` the Potency was inconclusive: 63.1 µM [quencher, side channel, single point].
With `COc1ccc(OC)c(/C=C/C(=O)NC2=NCCS2)c1` the Potency was inconclusive: 70.8 µM [fluorescent, side channel, single point].
With `COc1ccc(OC)c(/C=C/c2[nH]c(=O)[nH]c(=O)c2[N+](=O)[O-])c1` the Potency was inconclusive: 12.6 µM [inhibitor, partial curve].
`CCCCC[C@H](O)/C=C/[C@@H]1[C@@H](C/C=C\CCCC(=O)O)[C@@H](O)C[C@H]1O` was tested, and the Potency was “inactive”.
With `O=C(Cc1ccccc1)NCC(=O)N1CCCCC1` the Potency was inconclusive: 11.2 µM [fluorescent, side channel, full curve].
`O=C(N/C(=C/c1cccs1)C(=O)N1CCOCC1)c1ccccc1` was tested, and the Potency was inconclusive: 70.8 µM [fluorescent, side channel, single point].
In the case of `CCOCCCNC(=S)NCCCNc1nc2cc3c(cc2cc1C#N)OCO3`, the Potency is reported as “inactive”.
`Cc1ccc(C)c(CSC2=NCCN2S(=O)(=O)c2ccccc2)c1` was tested, and the Potency was inconclusive: 7.94 µM [quencher, side channel, single point].
With `CC[n+]1c(/C=C2\Sc3ccccc3N2C)ccc2cccc(C)c21` the Potency was inconclusive: 35.5 µM [fluorescent, side channel, partial curve].
With `CN(C)CCCNc1ccc(-c2n[nH]c(=O)c3ccccc23)cc1[N+](=O)[O-]` the Potency was inconclusive: 31.6 µM [quencher, side channel, partial curve].
`COCc1cc(C)n(CC(=O)Nc2ccccc2OC)c(=O)c1C#N` was tested, and the Potency was “inactive”.
With `O=S(=O)(Cc1ccccc1)Nc1ccc(F)cc1` the Potency was inconclusive: 70.8 µM [fluorescent, side channel, single point].
For `O=C(NNC(=O)c1ccc2c(c1)OCO2)NC1CCCCC1`, the Potency was inconclusive: 70.8 µM [fluorescent, side channel, single point].
For `Nc1c(/C=C2/C=CC(=O)C(O)=C2)c(=O)nc2sc(CC(=O)N3CCCCC3)nn12`, the Potency was inconclusive: 70.8 µM [fluorescent, side channel, single point].
`O=C(Nc1cccc(F)c1)NC1CCCc2ccccc21` (centres undefined) was tested, and the Potency was inconclusive: 8.91 µM [fluorescent, side channel, partial curve, poor fit].
`CC1OC23CCCCC2C(C#N)(C(=N)O3)C1(C#N)C#N` (centres undefined) was tested, and the Potency was inconclusive: 35.5 µM [inhibitor, single point].
In the case of `CC(=O)N1CCN(c2ccccc2NC(=O)COc2cc(C)ccc2C(C)C)CC1`, the Potency is reported as inconclusive: 15.8 µM [quencher, side channel, single point].
For `CCOC(=O)c1c(-c2ccccc2)oc2ccc(OCC(O)CNCCN(C)C)cc12` (centres undefined), the Potency was inconclusive: 50.1 µM [fluorescent, side channel, partial curve].
In the case of `CN(C)S(=O)(=O)c1ccc(/C(O)=C2/C(=O)C(=O)N(Cc3cccnc3)C2c2ccco2)cc1` (centres undefined), the Potency is reported as inconclusive: 70.8 µM [fluorescent, side channel, single point].
With `COc1ccccc1-c1cc(C2CC2)nc(N)c1C#N` the Potency was “inactive”.
With `CCCC(O)(c1ccc(CC)cc1)C(CN1CCOCC1)c1ccccc1` (centres undefined) the Potency was inconclusive: 2.82 µM [fluorescent, side channel, partial curve].
`O=C(N/N=C/c1cc([N+](=O)[O-])ccc1O)C1CCCCC1` was tested, and the Potency was “inactive”.
With `CC(C)CCNC(=O)c1cccnc1Sc1ccccc1` the Potency was inconclusive: 70.8 µM [quencher, side channel, single point].
In the case of `OC(COCc1ccc2c(c1)OCO2)CN1CCCCC1` (centres undefined), the Potency is reported as inconclusive: 15.8 µM [fluorescent, side channel, single point].
For `N#C/C(=C\c1ccc(N2CCOCC2)o1)c1nc2ccccc2[nH]1`, the Potency was inconclusive: 4.47 µM [fluorescent, side channel, full curve].
For `CCCCCCC(C)OC(=O)Nc1cccc2ccccc12` (centres undefined), the Potency was inconclusive: 70.8 µM [fluorescent, side channel, single point].
For `CCN1CCN(C2=CC3=CC(=C(C#N)C#N)CCC3CC2)CC1` (centres undefined), the Potency was inconclusive: 1 µM [fluorescent, full curve].
`Cc1ccc(CNc2oc(-c3cccs3)nc2C#N)cc1` was tested, and the Potency was “inactive”.
For `Cc1cccc(NC(=O)c2ccc(Cl)nc2)n1`, the Potency was inconclusive: 8.91 µM [quencher, side channel, single point].
With `O=C(/C=C/c1ccc(S(=O)(=O)N2CCOCC2)cc1)NC(=S)Nc1ccc(N2CCOCC2)cc1` the Potency was inconclusive: 11.2 µM [inhibitor, full curve, poor fit].

From PubChem BioAssay AID2662 (National Center for Advancing Translational Sciences (NCATS), 2010)
Potency is read from the fitted curve at half-maximal effect.
